Consider one substance from paper PMC8929146.

Chains of the proteins cited; added tags and fusions are not shown. Residues count along the entry.
UniProt P51532: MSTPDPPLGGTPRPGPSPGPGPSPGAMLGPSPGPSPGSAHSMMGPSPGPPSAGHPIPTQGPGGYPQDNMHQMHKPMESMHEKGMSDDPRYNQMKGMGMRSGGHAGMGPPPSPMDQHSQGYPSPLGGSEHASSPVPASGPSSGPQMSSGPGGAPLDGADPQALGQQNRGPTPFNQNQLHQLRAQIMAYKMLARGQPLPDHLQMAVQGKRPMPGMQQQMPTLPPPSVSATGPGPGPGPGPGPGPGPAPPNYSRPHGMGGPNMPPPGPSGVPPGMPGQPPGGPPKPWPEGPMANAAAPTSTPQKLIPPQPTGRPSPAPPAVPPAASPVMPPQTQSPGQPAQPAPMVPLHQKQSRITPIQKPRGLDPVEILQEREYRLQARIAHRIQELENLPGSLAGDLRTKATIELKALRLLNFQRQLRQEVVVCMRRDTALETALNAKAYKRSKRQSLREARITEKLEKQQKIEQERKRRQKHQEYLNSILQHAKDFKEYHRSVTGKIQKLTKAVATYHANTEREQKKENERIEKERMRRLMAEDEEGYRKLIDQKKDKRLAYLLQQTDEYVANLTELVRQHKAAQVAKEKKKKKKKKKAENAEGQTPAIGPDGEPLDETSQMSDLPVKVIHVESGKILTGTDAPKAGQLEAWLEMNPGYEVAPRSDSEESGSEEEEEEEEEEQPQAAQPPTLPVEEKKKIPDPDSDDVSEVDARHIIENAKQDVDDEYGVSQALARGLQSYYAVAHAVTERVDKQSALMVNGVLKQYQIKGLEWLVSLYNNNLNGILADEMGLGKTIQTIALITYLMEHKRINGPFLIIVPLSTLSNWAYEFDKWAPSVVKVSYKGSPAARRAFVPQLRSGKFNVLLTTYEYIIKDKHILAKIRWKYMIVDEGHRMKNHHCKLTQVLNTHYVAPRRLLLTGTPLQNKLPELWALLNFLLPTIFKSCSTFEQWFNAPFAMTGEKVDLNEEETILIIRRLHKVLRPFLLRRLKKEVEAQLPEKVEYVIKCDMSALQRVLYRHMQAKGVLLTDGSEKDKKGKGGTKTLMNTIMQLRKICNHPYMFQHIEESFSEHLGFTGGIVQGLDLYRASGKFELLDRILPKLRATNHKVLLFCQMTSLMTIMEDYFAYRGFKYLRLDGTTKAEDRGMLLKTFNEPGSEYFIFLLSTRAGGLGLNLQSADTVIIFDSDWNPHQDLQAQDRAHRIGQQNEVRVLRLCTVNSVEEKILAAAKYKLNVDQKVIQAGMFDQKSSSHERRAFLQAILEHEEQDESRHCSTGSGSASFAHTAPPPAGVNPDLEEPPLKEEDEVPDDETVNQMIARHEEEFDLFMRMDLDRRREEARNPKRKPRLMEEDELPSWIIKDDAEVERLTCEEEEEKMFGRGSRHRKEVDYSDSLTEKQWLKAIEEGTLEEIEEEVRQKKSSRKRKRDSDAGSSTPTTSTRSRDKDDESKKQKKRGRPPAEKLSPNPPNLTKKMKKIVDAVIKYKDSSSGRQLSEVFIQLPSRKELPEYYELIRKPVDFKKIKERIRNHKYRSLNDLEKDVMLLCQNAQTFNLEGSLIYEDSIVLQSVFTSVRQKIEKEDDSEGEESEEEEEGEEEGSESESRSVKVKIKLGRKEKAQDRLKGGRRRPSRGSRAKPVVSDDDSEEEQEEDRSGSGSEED
UniProt Q03164: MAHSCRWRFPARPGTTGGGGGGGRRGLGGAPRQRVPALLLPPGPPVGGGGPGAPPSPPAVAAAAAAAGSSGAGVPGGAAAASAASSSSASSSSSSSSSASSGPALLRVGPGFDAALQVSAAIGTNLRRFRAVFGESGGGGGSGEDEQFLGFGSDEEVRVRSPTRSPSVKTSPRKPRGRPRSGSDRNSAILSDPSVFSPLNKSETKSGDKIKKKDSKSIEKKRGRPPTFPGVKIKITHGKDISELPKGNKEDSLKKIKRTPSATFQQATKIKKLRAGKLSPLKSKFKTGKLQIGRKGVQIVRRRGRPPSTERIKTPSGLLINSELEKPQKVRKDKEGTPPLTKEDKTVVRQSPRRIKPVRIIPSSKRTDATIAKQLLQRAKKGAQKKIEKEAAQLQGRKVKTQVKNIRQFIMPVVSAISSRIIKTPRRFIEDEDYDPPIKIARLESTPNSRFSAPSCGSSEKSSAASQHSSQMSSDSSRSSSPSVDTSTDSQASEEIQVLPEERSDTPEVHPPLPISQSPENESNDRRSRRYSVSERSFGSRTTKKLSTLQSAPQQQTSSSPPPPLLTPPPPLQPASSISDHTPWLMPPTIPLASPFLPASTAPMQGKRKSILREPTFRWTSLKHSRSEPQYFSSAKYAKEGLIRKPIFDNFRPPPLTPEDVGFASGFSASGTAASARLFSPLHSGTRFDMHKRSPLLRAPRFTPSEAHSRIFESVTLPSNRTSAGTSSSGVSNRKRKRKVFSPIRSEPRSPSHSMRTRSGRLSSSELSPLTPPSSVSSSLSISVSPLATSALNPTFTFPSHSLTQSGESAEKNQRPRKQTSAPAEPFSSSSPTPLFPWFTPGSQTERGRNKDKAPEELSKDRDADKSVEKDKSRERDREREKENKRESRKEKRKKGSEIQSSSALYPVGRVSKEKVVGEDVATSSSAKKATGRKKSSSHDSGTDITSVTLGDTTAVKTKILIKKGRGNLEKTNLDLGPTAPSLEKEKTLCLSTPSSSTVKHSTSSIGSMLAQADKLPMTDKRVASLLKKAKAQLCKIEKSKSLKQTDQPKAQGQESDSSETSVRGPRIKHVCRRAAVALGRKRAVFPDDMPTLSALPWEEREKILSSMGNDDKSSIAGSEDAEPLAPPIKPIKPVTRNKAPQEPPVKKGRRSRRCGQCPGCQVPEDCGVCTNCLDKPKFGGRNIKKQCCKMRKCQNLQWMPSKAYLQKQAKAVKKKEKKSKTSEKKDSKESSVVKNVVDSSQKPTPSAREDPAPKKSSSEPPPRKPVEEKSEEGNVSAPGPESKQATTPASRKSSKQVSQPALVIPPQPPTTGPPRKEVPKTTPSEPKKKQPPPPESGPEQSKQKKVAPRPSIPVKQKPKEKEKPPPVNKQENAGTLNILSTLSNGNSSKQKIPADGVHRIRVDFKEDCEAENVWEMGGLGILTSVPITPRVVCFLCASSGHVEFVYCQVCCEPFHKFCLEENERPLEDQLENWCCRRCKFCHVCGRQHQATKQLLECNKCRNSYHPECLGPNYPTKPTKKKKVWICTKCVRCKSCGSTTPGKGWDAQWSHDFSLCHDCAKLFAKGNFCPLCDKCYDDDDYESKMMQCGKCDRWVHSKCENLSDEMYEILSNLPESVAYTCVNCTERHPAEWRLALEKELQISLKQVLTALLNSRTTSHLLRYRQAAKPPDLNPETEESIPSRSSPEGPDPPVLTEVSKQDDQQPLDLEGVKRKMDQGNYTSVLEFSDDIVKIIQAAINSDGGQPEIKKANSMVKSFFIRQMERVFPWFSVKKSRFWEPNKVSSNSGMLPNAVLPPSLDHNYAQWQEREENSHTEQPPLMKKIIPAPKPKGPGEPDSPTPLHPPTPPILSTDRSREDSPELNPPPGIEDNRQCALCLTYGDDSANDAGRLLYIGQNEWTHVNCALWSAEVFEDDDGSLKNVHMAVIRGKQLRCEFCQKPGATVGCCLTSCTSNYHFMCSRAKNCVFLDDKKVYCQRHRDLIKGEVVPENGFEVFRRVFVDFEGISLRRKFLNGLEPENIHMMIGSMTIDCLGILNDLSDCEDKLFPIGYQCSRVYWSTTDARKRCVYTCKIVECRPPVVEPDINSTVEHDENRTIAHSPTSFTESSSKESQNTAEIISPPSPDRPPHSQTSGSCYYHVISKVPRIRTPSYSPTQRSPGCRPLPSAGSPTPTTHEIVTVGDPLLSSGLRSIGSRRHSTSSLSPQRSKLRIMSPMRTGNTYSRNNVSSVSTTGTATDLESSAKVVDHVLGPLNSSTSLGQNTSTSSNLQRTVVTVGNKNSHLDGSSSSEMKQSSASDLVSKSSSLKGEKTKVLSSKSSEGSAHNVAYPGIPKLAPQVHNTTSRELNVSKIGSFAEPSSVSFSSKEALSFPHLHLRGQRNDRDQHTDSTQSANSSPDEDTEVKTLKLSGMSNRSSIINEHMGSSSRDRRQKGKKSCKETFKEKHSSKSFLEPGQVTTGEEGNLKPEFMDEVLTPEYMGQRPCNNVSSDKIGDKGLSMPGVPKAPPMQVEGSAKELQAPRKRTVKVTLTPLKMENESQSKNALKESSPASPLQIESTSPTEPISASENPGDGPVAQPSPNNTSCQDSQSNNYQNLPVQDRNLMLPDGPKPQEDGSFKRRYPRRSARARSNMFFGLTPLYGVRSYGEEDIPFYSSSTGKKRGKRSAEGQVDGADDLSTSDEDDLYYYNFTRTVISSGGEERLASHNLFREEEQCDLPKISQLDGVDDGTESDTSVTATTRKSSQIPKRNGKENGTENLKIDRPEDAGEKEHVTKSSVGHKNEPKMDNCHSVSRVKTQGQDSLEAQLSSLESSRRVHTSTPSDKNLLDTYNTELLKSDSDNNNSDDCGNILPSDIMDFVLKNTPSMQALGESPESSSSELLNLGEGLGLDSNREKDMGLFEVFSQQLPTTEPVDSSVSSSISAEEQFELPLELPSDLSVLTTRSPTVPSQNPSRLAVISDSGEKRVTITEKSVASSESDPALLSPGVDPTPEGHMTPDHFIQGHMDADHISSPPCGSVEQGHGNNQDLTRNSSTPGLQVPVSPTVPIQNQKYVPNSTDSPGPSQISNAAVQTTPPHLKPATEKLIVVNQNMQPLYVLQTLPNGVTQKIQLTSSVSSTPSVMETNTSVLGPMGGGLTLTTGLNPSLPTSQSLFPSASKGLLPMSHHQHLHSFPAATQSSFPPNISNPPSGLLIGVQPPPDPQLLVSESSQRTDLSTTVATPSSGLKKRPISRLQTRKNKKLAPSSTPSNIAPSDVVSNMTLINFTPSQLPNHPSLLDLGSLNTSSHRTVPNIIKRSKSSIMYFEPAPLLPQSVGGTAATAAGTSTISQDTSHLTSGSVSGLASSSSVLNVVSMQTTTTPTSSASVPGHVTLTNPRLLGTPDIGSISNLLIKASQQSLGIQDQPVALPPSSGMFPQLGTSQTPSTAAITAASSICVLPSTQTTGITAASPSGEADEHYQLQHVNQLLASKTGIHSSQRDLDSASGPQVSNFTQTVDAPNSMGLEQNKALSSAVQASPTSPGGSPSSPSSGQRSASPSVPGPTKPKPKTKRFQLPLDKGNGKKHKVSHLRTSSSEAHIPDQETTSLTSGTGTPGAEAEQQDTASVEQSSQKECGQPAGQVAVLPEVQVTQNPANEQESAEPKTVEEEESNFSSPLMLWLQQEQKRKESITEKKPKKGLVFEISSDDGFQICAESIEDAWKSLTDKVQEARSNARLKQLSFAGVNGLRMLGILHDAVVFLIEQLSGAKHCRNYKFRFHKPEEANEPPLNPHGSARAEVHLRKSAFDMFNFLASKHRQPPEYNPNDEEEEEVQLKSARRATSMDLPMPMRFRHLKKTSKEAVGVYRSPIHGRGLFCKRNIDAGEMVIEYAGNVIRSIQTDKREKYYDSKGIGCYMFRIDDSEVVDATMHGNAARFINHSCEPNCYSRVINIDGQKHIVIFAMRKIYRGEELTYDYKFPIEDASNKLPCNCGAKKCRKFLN
UniProt P35869, residues 11-848: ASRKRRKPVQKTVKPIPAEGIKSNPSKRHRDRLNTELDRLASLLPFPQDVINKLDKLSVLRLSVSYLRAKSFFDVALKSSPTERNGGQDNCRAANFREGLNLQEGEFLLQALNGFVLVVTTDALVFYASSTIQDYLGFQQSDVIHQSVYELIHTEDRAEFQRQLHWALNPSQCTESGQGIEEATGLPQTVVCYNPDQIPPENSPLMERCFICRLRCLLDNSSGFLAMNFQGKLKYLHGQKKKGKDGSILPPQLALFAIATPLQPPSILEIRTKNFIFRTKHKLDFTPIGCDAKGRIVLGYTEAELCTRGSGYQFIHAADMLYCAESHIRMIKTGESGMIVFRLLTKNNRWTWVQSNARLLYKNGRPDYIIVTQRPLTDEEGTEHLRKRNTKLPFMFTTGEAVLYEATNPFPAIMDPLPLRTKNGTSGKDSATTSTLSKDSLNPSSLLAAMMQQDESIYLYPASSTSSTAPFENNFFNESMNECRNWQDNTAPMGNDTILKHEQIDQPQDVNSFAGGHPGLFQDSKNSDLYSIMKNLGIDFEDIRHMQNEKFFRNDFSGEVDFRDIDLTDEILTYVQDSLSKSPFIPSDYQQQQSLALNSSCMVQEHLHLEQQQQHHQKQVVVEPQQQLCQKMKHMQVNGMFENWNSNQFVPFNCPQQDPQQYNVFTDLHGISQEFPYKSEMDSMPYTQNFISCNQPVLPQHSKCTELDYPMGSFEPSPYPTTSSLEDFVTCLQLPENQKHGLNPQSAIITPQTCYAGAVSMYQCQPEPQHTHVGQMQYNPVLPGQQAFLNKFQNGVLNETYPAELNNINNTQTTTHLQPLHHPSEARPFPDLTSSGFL

Results are given in words; binding and its absence hold for the method and conditions named. Binding seen in cells or lysates may run through a third protein. Some entries that bind do so weakly or less than the wild type.

In assay [1] the target is BRG1 (human (endogenous in ARPE-19)) (UniProt P51532). The experiment in a line: co-IP; endogenous proteins in total extracts of ARPE-19 cells treated with 10 nM TCDD or vehicle, RIPA buffer; immunoprecipitation with anti-AHR, anti-BRG1 or anti-MLL1 antibody or normal IgG, then immunoblotting.
Assay [2] has as its target MLL1 (human (endogenous in ARPE-19)) (UniProt Q03164). Described as above.

In the case of “Aryl hydrocarbon receptor (from UniProt P35869 11-848)”, the binding result in assay [1] and in assay [2] was “binds” in each case.
